Data source: PubChem BioAssay AID1159584 (Peter MacCallum Cancer Centre, 2016)
Aim: 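Genes whose loss is lethal only together with E-cadherin loss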 (primary screen). Cell system: human MCF10A breast epithelial cells, parental and CDH1-null. Reagents: siRNA against human genes. Detection: 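ATP luminescence (CellTiter-Glo) viability per line relative to mean mock wells over all plates, and the ratio of CDH1-null to parental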. Scale: CDH1-null / parental viability ratio: higher = CDH1-null cells survive relatively better than parental; CDH1-null viability vs mock: higher = more viable CDH1-null cells; parental viability vs mock: higher = more viable parental cells.
Shown is a random part of about 18,000 reagents tested. Not stated in the record: the amount of reagent, the time to read-out.

no.	gene symbol	CDH1-null / parental viability ratio	CDH1-null viability vs mock (fraction of mock)	parental viability vs mock (fraction of mock)
1	PIGZ	0.91	0.64	0.7
2	SLC13A4	0.91	0.6	0.66
3	DNM1L	0.84	0.57	0.68
4	CSNK1G1	0.97	0.77	0.79
5	STK16	0.89	0.76	0.85
6	DNAJC19	0.86	0.72	0.84
7	GRM2	0.72	0.57	0.79
8	PLB1	0.86	0.63	0.73
9	ZNF222	0.96	0.86	0.9
10	TNFAIP8	0.89	0.57	0.64
11	EEIG1	1.22	1.21	0.99
12	PCDHA13	1.11	0.4	0.36
13	GPX2	1.11	1.04	0.94
14	LCN9	0.77	0.5	0.65
15	IL20RA	1.04	0.8	0.77
16	PPM1N	1.03	0.72	0.7
17	PRSS42P	1.62	0.86	0.53
18	HIVEP2	0.78	0.86	1.1
19	TMBIM1	1.05	0.92	0.88
20	RPL18	2.73	0.6	0.22
21	PTPRK	1.05	0.86	0.82
22	SLC16A11	1.17	0.76	0.65
23	WDR81	0.88	0.74	0.84
24	LTBR	1.13	0.68	0.6
25	CEP83	0.9	0.8	0.89
26	CEP70	1.04	0.77	0.74
27	SGK3	1.06	0.89	0.84
28	GTPBP1	0.9	0.94	1.04

Not a retest: an excerpt of the list.
no.	gene symbol	CDH1-null / parental viability ratio	CDH1-null viability vs mock (fraction of mock)	parental viability vs mock (fraction of mock)
2	SLC13A4	0.91	0.6	0.66
3	DNM1L	0.84	0.57	0.68
4	CSNK1G1	0.97	0.77	0.79
